The values below come from doi:10.1101/2020.06.15.145656.

Chains of the proteins cited; added tags and fusions are not shown. Residues count along the entry.
UniProt O15047: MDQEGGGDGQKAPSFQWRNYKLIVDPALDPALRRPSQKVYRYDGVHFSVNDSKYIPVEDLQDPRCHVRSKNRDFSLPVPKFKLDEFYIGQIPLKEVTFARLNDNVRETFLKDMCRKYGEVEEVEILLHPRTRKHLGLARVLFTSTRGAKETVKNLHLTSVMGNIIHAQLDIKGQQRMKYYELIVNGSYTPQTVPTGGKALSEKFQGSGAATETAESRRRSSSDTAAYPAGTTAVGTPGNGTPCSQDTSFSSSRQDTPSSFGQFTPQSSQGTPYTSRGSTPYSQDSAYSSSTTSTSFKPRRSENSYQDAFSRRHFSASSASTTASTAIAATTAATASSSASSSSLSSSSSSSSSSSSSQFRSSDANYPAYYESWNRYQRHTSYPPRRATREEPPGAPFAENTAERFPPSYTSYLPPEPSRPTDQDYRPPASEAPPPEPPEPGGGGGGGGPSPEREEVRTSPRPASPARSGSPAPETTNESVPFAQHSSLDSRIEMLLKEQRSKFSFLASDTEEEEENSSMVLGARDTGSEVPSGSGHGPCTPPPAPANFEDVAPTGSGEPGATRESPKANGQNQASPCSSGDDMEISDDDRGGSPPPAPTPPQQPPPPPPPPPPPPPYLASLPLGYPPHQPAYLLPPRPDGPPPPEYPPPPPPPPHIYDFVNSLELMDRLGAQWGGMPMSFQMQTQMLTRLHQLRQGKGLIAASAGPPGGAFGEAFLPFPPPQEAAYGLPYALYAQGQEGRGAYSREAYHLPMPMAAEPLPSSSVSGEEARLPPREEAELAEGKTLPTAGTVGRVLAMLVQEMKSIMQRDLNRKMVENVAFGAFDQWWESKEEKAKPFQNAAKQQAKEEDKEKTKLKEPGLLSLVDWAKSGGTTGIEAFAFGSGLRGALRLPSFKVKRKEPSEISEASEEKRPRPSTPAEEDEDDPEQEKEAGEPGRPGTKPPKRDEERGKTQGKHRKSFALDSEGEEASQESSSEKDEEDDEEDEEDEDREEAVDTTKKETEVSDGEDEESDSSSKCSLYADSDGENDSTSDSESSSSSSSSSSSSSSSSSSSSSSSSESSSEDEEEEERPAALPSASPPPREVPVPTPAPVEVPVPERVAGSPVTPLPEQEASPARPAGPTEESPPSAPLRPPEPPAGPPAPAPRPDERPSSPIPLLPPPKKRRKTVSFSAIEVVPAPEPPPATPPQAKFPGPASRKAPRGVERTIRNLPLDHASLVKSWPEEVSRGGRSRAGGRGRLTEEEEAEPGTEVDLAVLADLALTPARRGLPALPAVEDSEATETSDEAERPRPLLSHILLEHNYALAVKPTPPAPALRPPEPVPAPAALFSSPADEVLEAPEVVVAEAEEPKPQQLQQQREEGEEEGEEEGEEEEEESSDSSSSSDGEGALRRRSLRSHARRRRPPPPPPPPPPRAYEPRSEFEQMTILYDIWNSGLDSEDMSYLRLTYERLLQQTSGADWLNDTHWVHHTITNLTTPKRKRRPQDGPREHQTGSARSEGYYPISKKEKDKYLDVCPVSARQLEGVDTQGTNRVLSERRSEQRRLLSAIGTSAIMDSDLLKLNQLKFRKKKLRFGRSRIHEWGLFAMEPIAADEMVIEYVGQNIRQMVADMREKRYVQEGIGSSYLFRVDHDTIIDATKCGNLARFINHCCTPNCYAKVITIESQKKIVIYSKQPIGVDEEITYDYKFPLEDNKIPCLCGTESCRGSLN
UniProt P63165, residues 1-97: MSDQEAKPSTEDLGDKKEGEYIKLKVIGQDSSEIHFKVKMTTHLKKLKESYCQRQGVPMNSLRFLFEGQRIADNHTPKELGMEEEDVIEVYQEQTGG
UniProt O75925: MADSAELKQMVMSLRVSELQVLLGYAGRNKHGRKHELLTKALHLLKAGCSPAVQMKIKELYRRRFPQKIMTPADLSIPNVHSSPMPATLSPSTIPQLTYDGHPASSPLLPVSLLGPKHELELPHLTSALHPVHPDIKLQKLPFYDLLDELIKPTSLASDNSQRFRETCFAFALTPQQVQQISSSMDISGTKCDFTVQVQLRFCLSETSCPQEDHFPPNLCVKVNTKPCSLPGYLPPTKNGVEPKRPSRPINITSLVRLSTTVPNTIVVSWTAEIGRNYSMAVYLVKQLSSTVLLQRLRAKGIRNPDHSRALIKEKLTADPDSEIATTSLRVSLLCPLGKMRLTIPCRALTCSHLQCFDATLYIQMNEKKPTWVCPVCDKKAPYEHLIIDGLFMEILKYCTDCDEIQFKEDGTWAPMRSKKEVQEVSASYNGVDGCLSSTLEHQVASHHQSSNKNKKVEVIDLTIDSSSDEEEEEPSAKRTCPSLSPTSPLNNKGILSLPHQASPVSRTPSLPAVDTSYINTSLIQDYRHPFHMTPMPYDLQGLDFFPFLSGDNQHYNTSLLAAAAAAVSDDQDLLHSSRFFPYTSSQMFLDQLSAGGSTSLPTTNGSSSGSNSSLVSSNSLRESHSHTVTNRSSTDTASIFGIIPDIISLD

Test [1] addresses T1, endogenous HMGXB4 (human (endogenous in HEK293)) (UniProt Q9UGU5).
T1 sequence: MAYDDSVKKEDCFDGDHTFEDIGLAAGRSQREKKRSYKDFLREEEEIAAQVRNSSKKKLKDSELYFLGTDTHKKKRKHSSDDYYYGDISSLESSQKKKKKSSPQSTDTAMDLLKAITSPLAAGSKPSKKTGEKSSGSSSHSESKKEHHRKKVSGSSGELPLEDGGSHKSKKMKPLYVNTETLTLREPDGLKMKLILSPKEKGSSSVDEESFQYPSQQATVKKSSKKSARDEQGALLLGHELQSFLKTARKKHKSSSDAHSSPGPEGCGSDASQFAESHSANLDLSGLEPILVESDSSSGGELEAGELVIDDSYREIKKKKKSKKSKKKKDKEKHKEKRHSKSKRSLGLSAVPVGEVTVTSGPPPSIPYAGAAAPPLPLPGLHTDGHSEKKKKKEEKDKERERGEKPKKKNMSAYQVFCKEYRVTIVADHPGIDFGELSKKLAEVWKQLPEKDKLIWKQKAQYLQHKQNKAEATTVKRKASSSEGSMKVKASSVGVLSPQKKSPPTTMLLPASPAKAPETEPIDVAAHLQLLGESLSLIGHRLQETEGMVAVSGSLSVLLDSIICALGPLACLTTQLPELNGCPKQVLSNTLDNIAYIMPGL
Briefly: co-IP.

The target in test [2] is T2, HMGXB4-HA (human) (UniProt Q9UGU5).
T2 sequence: T1 sequence
Briefly: co-IP.

Results are given in words; binding and its absence hold for the method and conditions named. Binding seen in cells or lysates may run through a third protein. Some entries that bind do so weakly or less than the wild type. For part of these data: Sequences can lack the tags named with a protein.

Consider “SETD1A (from UniProt O15047 1-1707) (enzyme)”, for which, in test [1], the binding result was “binds”.
In the case of “SUMO1 (co-IP in HeLa cells, data not shown) (from UniProt P63165 1-97)”, the binding entry in test [2] is “binds”.
As for PIAS1-FLAG (from UniProt O75925 1-651), in test [2], the binding entry is given as “binds”.
